The supplement of paper PMC12823440, “Inhibitors supercharge kinase turnover through native proteolytic circuits” (Nature, 2025)
Where a name gives a salt, the structure may show the parent alone. This is one part of the list. The calls rarely recur for the same compound in another form.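 Kinases were expressed as nanoluciferase fusions in K562 cells and luminescence was read every 4 h between 2 and 18 h as percent of control, DMSO set to 100% and a positive control to 0%. A time point counts as decreased when the signal drops significantly (2 sigma). The hit call is the authors' own, does not follow from the count of time points alone, and its rule is not shown.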

Protein sequences, listed by entry. Tags and fused reporters are not part of them. Lines headed by an entry give the natural chain unless they say otherwise; changes in a name come on top.
UniProt Q9UM73: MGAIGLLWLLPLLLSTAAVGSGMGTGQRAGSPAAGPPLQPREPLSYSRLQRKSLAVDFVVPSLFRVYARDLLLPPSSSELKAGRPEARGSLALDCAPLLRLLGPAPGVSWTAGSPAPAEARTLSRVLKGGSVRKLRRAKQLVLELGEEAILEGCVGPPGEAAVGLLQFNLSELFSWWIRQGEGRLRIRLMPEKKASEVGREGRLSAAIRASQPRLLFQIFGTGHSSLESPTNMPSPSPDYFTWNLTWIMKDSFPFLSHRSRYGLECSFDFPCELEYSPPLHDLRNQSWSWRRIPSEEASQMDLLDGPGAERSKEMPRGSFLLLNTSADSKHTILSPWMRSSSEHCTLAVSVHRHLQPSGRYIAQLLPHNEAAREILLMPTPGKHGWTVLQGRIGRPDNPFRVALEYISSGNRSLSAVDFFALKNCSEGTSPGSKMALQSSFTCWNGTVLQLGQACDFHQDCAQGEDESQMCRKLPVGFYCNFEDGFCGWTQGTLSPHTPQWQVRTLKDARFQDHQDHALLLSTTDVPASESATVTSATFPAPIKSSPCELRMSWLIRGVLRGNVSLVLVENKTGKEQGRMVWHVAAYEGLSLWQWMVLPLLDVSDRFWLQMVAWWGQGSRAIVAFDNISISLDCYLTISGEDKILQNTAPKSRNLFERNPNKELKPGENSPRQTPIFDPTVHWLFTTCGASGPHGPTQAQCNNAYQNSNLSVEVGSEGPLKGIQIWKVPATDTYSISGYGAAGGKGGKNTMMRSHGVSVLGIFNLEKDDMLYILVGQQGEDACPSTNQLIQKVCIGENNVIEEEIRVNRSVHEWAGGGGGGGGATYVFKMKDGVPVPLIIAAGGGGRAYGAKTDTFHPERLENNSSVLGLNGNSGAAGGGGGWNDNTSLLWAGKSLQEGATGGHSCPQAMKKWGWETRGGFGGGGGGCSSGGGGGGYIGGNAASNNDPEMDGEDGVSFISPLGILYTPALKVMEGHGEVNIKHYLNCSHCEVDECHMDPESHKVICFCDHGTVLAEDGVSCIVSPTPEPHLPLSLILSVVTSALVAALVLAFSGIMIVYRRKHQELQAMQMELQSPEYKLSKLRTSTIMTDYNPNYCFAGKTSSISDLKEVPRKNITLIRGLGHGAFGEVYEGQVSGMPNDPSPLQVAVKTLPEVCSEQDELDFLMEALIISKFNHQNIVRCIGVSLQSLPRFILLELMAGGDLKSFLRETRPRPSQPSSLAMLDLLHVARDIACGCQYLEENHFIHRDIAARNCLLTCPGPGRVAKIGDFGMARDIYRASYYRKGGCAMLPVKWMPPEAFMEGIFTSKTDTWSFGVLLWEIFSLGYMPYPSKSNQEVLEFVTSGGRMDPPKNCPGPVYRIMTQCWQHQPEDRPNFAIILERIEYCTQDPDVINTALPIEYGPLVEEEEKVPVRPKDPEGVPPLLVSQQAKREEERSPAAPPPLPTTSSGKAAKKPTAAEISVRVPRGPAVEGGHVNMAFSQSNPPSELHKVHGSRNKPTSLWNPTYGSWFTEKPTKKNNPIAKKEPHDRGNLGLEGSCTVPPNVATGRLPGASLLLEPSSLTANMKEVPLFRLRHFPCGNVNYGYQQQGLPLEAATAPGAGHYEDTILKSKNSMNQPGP
UniProt P10398: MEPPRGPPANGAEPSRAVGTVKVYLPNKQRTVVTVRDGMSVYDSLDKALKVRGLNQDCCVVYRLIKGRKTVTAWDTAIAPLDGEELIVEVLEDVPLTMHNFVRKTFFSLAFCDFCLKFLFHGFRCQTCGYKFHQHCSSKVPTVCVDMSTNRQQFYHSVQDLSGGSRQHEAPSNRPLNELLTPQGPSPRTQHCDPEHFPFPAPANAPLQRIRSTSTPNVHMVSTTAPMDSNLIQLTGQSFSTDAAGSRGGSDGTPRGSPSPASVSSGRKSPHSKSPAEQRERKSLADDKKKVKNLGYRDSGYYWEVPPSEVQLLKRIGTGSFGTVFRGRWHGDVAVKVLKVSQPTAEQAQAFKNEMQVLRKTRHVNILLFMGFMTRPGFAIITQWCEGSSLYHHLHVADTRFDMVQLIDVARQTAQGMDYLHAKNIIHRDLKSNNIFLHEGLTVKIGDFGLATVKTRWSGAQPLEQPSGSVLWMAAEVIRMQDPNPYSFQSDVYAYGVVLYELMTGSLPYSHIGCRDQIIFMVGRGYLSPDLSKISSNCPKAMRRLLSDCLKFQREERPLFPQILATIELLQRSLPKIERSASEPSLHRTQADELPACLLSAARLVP
UniProt O14965: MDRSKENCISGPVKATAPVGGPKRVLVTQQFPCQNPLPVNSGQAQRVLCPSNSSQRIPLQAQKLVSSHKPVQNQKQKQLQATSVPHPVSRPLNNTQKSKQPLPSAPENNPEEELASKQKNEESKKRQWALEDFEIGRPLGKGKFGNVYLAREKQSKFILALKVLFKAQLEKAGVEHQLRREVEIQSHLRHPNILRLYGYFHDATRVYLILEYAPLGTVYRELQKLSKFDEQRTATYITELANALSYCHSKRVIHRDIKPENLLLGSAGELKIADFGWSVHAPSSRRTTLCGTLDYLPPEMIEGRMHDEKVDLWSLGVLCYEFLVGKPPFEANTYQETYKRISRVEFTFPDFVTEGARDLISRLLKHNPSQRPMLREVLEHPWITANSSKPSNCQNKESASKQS
UniProt Q9UQB9: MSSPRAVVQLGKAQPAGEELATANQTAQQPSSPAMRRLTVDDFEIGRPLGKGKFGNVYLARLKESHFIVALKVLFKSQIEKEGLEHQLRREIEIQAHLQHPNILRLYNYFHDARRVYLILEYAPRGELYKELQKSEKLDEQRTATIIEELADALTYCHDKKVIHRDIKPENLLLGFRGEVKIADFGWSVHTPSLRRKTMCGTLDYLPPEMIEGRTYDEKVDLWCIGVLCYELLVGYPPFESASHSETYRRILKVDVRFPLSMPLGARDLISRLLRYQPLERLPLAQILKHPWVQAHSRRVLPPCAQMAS
UniProt P51451: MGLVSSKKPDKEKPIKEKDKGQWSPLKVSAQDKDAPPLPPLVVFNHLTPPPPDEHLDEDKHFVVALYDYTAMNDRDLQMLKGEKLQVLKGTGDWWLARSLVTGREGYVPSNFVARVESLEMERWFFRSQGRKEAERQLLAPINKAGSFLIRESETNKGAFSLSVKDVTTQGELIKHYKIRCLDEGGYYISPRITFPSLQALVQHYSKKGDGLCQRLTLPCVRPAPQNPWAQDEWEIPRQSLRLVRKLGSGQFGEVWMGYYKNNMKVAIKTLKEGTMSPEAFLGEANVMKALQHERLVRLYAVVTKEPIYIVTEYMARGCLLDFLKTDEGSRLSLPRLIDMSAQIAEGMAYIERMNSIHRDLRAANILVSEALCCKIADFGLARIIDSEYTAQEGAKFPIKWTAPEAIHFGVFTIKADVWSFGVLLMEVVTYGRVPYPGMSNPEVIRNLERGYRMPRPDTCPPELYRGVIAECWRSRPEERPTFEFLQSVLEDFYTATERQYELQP
UniProt P15056, whole entry, looked up: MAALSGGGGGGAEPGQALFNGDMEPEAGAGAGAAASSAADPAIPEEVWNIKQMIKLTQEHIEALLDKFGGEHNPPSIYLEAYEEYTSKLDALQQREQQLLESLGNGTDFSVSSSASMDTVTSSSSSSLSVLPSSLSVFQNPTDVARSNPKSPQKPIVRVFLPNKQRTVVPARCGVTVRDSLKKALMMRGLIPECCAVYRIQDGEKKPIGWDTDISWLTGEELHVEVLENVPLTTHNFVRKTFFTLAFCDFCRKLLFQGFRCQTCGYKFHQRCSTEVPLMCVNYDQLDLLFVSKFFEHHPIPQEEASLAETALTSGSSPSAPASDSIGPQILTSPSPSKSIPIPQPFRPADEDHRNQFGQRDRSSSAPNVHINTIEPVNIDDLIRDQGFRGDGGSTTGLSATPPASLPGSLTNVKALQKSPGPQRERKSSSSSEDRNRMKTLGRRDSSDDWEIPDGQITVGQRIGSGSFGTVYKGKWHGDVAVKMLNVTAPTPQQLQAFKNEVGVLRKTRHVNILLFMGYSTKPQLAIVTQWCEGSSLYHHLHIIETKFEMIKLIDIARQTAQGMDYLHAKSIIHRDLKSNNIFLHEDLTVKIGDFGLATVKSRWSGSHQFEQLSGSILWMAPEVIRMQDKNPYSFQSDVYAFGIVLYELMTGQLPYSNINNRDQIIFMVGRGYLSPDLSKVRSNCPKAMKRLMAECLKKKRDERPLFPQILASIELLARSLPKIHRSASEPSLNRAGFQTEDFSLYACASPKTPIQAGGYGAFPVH
UniProt Q06187: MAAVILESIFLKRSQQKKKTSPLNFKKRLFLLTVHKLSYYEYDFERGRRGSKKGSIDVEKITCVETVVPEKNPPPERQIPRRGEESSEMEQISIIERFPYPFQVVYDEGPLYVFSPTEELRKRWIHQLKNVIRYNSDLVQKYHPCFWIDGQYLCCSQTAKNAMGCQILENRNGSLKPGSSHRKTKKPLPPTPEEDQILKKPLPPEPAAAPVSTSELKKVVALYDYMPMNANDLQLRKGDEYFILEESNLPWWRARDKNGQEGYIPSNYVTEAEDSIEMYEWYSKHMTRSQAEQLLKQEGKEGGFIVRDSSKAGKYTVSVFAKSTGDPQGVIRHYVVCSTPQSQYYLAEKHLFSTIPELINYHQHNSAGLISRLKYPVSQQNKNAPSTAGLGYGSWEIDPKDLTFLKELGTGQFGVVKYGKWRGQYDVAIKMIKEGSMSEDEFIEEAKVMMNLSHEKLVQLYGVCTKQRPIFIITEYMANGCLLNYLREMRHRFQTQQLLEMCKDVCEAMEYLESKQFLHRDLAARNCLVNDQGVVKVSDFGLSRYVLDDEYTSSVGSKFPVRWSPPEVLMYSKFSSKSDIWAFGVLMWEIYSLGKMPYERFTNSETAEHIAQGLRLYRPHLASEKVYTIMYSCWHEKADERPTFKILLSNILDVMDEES
UniProt Q9UQM7, whole entry: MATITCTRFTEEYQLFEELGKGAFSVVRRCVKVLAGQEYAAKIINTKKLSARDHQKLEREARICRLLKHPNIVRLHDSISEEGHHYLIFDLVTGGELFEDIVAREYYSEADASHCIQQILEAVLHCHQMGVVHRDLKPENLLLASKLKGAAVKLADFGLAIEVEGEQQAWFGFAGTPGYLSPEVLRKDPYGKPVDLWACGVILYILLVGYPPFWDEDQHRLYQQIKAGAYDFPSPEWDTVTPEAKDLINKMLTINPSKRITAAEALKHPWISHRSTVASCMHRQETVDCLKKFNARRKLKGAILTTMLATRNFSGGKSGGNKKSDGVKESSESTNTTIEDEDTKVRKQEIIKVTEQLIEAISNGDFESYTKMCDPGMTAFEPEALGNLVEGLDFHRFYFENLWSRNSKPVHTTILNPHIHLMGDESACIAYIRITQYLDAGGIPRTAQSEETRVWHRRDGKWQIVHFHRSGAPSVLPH
UniProt Q15131: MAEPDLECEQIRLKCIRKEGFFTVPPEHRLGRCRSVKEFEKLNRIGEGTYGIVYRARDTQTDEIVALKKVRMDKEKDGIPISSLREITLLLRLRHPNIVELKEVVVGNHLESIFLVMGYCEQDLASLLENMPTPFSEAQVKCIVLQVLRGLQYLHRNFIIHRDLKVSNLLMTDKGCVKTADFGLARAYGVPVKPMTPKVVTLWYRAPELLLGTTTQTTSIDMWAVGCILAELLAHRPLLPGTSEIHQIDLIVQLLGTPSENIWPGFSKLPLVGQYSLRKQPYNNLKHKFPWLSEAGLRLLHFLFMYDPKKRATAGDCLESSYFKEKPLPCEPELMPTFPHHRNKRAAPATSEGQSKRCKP
UniProt Q00535, whole entry, looked up: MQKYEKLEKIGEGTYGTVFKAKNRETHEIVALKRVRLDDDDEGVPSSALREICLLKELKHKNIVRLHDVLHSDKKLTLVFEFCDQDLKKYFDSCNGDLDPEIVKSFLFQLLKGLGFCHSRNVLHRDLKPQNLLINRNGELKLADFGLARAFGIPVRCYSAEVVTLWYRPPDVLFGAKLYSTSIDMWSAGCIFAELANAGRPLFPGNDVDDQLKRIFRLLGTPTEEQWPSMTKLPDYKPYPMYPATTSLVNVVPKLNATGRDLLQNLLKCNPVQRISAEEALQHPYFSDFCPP
UniProt P41240: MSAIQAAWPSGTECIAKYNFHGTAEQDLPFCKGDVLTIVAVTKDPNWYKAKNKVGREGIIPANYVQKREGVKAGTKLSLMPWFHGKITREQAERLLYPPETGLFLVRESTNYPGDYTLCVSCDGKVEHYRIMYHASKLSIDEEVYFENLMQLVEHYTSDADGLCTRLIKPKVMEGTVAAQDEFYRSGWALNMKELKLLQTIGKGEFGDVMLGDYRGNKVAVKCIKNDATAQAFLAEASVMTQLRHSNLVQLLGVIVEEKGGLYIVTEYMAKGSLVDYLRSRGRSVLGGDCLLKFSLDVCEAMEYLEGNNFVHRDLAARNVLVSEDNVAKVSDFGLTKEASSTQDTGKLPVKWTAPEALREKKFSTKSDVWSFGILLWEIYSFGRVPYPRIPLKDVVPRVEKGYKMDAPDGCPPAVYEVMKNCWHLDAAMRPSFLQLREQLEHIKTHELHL

Key:
Assay in all cases: number of time points (of 5) at which kinase-Nluc abundance scored as decreased, DMSO-normalised (count); higher = more persistent destabilization
Conditions in all cases: K562; 2-18 h
[1] = target: ALK (UniProt Q9UM73)
[2] = target: ARAF (UniProt P10398)
[3] = target: AURKA (UniProt O14965)
[4] = target: AURKB (UniProt Q96GD4)
[5] = target: AURKC (UniProt Q9UQB9)
[6] = target: BLK (UniProt P51451)
[7] = target: BMX (UniProt P51813)
[8] = target: BRAF (UniProt P15056)
[9] = tested on: BRAF_V600E
[10] = target: BTK (UniProt Q06187)
[11] = target: CAMK2A (UniProt Q9UQM7)
[12] = target: CAMK2G (UniProt Q13555)
[13] = target: CDK10 (UniProt Q15131)
[14] = target: CDK2 (UniProt P24941)
[15] = target: CDK3 (UniProt Q00526)
[16] = target: CDK5 (UniProt Q00535)
[17] = target: CDK6 (UniProt Q00534)
[18] = target: CHEK2 (UniProt O96017)
[19] = target: CSF1R (UniProt P07333)
[20] = target: CSK (UniProt P41240)

Row | Structure (SMILES) | number of time points [1] | number of time points [2] | number of time points [3] | number of time points [4] | number of time points [5] | number of time points [6] | number of time points [7] | number of time points [8] | number of time points [9] | number of time points [10] | number of time points [11] | number of time points [12] | number of time points [13] | number of time points [14] | number of time points [15] | number of time points [16] | number of time points [17] | number of time points [18] | number of time points [19] | number of time points [20]
1 | CN1CCN(c2ccc(-n3cc(-c4ccncc4OCC4CCNCC4)cn3)cc2)CC1 [MELK-8a (hydrochloride)] (10 µM) | 0 | 0 | 3 | 3 | 0 | 3 | 4 | 3 | 3 | 0 | 0 | 0 | 0 | 0 | 0 | 0 | 0 | 3 | 3 | 0
2 | COc1cc2nc(-c3cc(F)ccc3O)nc(N[C@@H]3CNC[C@H]3C(C)(C)O)c2cc1OC (2.5 µM) | 0 | 0 | 0 | 0 | 0 | 1 | 0 | 0 | 0 | 0 | 0 | 0 | 0 | 0 | 0 | 0 | 0 | 0 | 0 | 0
3 | O=C(CCl)c1c[nH]c2ccccc12 (2.5 µM) | 0 | 0 | 0 | 0 | 0 | 0 | 0 | 0 | 0 | 0 | 0 | 0 | 0 | 0 | 0 | 0 | 0 | 0 | 0 | 0
4 | O=C1C=CC2=C3c4cc(O)c(O)cc4CC3(O)COC2=C1O (stereo not given) [Hematein] (10 µM) | 0 | 0 | 0 | 0 | 0 | 0 | 0 | 0 | 0 | 0 | 0 | 0 | 0 | 0 | 0 | 0 | 0 | 0 | 0 | 0
5 | O=C(O)/C=C(\CCc1ccc(Cl)cc1)c1ccccc1 (10 µM) | 0 | 0 | 0 | 0 | 0 | 0 | 0 | 0 | 0 | 0 | 0 | 0 | 0 | 0 | 0 | 0 | 0 | 0 | 0 | 0
6 | CS[C@@]1(C(=O)Nc2ccc3[nH]nc(-c4ccc(OC(C)C)nc4)c3c2)CCN(CC(=O)N2CC=C(c3ccc(-c4ncn(C)n4)cc3)CC2)C1 (2.5 µM) | 0 | 0 | 0 | 0 | 0 | 0 | 0 | 0 | 0 | 0 | 0 | 0 | 0 | 0 | 0 | 0 | 0 | 0 | 0 | 0
7 | Oc1ccc(-c2cnc3ccc(NCc4ccco4)nn23)cc1 [IRAK inhibitor 2] (2.5 µM) | 0 | 0 | 0 | 0 | 0 | 0 | 0 | 0 | 1 | 0 | 0 | 0 | 0 | 1 | 0 | 0 | 0 | 0 | 0 | 0
8 | COc1ccc(Br)c(C=O)c1O [6-Bromo-2-hydroxy-3-methoxybenzaldehyde] (10 µM) | 0 | 0 | 0 | 0 | 0 | 0 | 0 | 0 | 0 | 0 | 0 | 0 | 0 | 0 | 0 | 0 | 0 | 0 | 0 | 0
9 | CN1C(=O)[C@@H](NC(=O)c2cc(Cc3ccccc3)on2)COc2ccccc21 (10 µM) | 0 | 0 | 0 | 0 | 0 | 0 | 0 | 0 | 0 | 0 | 0 | 0 | 0 | 0 | 0 | 0 | 0 | 0 | 0 | 0
10 | COc1ccc2nc3ccc(OC)cc3c(SCCCN)c2c1 (10 µM) | 3 | 0 | 3 | 1 | 0 | 1 | 0 | 0 | 1 | 0 | 0 | 0 | 0 | 0 | 0 | 0 | 0 | 2 | 0 | 0
11 | CCCCNc1ncc2c(-c3ccc(F)cc3)nn(CC3CCC(N)CC3)c2n1 (stereo not given) (2.5 µM) | 0 | 0 | 0 | 0 | 0 | 0 | 0 | 0 | 0 | 0 | 0 | 0 | 0 | 0 | 0 | 0 | 0 | 0 | 0 | 0
12 | CNCc1cc(Oc2ccc3c(ccn3C(=O)Nc3cc(C(F)(F)F)n(C)n3)c2)ncn1 [Acrizanib] (10 µM) | 0 | 0 | 0 | 0 | 0 | 0 | 4 | 0 | 0 | 0 | 0 | 0 | 0 | 0 | 0 | 0 | 0 | 0 | 0 | 0
13 | CC1=CC(=O)C(C(C)C)=C/C1=N/OC(=O)c1ccccc1C [Poloxin] (2.5 µM) | 0 | 0 | 0 | 0 | 0 | 0 | 0 | 0 | 0 | 0 | 0 | 0 | 0 | 0 | 0 | 0 | 0 | 0 | 0 | 0
14 | COc1ccc2cc1Oc1ccc(cc1)C[C@H]1c3cc(c(OC)cc3CCN1C)Oc1c(O)c(OC)cc3c1[C@H](C2)N(C)CC3 [Fangchinoline] (2.5 µM) | 0 | 0 | 0 | 0 | 0 | 0 | 0 | 0 | 0 | 0 | 0 | 0 | 0 | 0 | 0 | 0 | 0 | 0 | 0 | 0
15 | CN(C)c1cc[n+](Cc2ccc(OCCOc3ccc(C[n+]4ccc(N(C)C)cc4)cc3)cc2)cc1 (10 µM) | 0 | 0 | 0 | 0 | 0 | 0 | 0 | 0 | 0 | 0 | 0 | 0 | 0 | 0 | 0 | 0 | 0 | 0 | 0 | 0
16 | COc1cc2nccc(Nc3cccc(Oc4ccccc4)c3)c2cc1OC (2.5 µM) | 0 | 0 | 1 | 0 | 0 | 0 | 0 | 0 | 0 | 0 | 0 | 0 | 0 | 0 | 0 | 1 | 0 | 0 | 0 | 0
17 | CN1C(=O)N[C@@H](Cc2c[nH]c3c(Cl)cccc23)C1=O [Necrostatin 2 (S enantiomer)] (10 µM) | 0 | 0 | 0 | 0 | 0 | 0 | 0 | 0 | 0 | 0 | 0 | 0 | 0 | 0 | 0 | 0 | 0 | 0 | 0 | 0
18 | Cc1cnc(Nc2ccc(F)cc2Cl)nc1-c1c[nH]c(C(=O)N[C@H](CO)c2cccc(Cl)c2)c1 (10 µM) | 0 | 0 | 0 | 0 | 0 | 0 | 0 | 0 | 0 | 0 | 0 | 0 | 0 | 0 | 0 | 0 | 0 | 0 | 0 | 0
19 | O=C(NC[C@H](O)CO)c1ccncc1Nc1ccc(I)cc1F [Pimasertib] (10 µM) | 1 | 4 | 1 | 0 | 0 | 0 | 1 | 0 | 3 | 0 | 0 | 1 | 0 | 0 | 0 | 0 | 0 | 2 | 0 | 0
20 | Cc1ccc(NC(=O)N2CCN(c3nc(N)nc4sc(-c5cccnc5)nc34)CC2)cc1 [PI4KIII beta inhibitor 3] (10 µM) | 0 | 0 | 0 | 0 | 0 | 0 | 0 | 0 | 0 | 0 | 0 | 0 | 0 | 0 | 0 | 0 | 0 | 0 | 0 | 0
21 | Cc1ccc2c(NS(=O)(=O)c3ccccc3Cl)cccc2c1Oc1ncccc1-c1ccnc(N[C@H]2CCCNC2)n1 (2.5 µM) | 0 | 0 | 0 | 0 | 0 | 0 | 0 | 0 | 0 | 0 | 0 | 0 | 0 | 0 | 0 | 0 | 0 | 0 | 0 | 0
22 | O=C(O)c1c[nH]c2cc(Cl)c(-c3ccc(C4(O)CCC4)cc3)cc12 (10 µM) | 0 | 0 | 0 | 0 | 0 | 0 | 0 | 0 | 0 | 0 | 0 | 0 | 0 | 0 | 0 | 0 | 0 | 0 | 0 | 0
23 | CC1(C)CN(C(=O)c2ccc(-c3cccc4nc(NC(=O)C5CC5)nn34)cc2)C1 [Solcitinib] (10 µM) | 0 | 0 | 0 | 0 | 0 | 0 | 0 | 0 | 0 | 0 | 0 | 0 | 0 | 0 | 0 | 0 | 0 | 0 | 0 | 0
24 | CC(=O)Nc1nc(C)c(-c2cc(C)c3c(c2)CN([C@@H](C)C2CC2)C3=O)s1 (10 µM) | 0 | 0 | 0 | 0 | 0 | 0 | 0 | 0 | 0 | 0 | 0 | 0 | 0 | 0 | 0 | 0 | 0 | 0 | 0 | 0

Sorted by formula weight (rising): some entries from above.
Row | Structure (SMILES) | number of time points [1] | number of time points [2] | number of time points [3] | number of time points [4] | number of time points [5] | number of time points [6] | number of time points [7] | number of time points [8] | number of time points [9] | number of time points [10] | number of time points [11] | number of time points [12] | number of time points [13] | number of time points [14] | number of time points [15] | number of time points [16] | number of time points [17] | number of time points [18] | number of time points [19] | number of time points [20]
13 | CC1=CC(=O)C(C(C)C)=C/C1=N/OC(=O)c1ccccc1C [Poloxin] (2.5 µM) | 0 | 0 | 0 | 0 | 0 | 0 | 0 | 0 | 0 | 0 | 0 | 0 | 0 | 0 | 0 | 0 | 0 | 0 | 0 | 0
7 | Oc1ccc(-c2cnc3ccc(NCc4ccco4)nn23)cc1 [IRAK inhibitor 2] (2.5 µM) | 0 | 0 | 0 | 0 | 0 | 0 | 0 | 0 | 1 | 0 | 0 | 0 | 0 | 1 | 0 | 0 | 0 | 0 | 0 | 0
23 | CC1(C)CN(C(=O)c2ccc(-c3cccc4nc(NC(=O)C5CC5)nn34)cc2)C1 [Solcitinib] (10 µM) | 0 | 0 | 0 | 0 | 0 | 0 | 0 | 0 | 0 | 0 | 0 | 0 | 0 | 0 | 0 | 0 | 0 | 0 | 0 | 0
19 | O=C(NC[C@H](O)CO)c1ccncc1Nc1ccc(I)cc1F [Pimasertib] (10 µM) | 1 | 4 | 1 | 0 | 0 | 0 | 1 | 0 | 3 | 0 | 0 | 1 | 0 | 0 | 0 | 0 | 0 | 2 | 0 | 0
2 | COc1cc2nc(-c3cc(F)ccc3O)nc(N[C@@H]3CNC[C@H]3C(C)(C)O)c2cc1OC (2.5 µM) | 0 | 0 | 0 | 0 | 0 | 1 | 0 | 0 | 0 | 0 | 0 | 0 | 0 | 0 | 0 | 0 | 0 | 0 | 0 | 0
